# Counter-ions that a name gives are not always drawn. Some of the results follow. This data set is noisy: repeats of one test often differ as much as different tests do.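 In a drug-repurposing library screen, luminescence reads luciferase driven by eight TEAD-binding elements, stably integrated into human kidney-derived cells. Compounds scoring over five robust Z scores above the plate mean are called hits.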
# Test system: HEK293A TEAD-LUC reporter
# Assay: TEAD-luciferase reporter activity (YAP activation), robust Z score vs plate; higher = stronger YAP/TEAD activation
# Details: 24 h
SMILES,TEAD-luciferase reporter activity (compound concentration: 200 nM),TEAD-luciferase reporter activity (compound concentration: 2 uM),TEAD-luciferase reporter activity (compound concentration: 10 uM)
CNS(=O)(=O)Nc1nccc(Cc2c(C)c3ccc(Oc4ncccn4)cc3oc2=O)c1F,inactive: 0.661,inactive: 1.18,inactive: 1.85
Cc1cc(C)cc(COCCOCn2cc(C)c(=O)[nH]c2=O)c1,inactive: -2.03,inactive: -1.07,inactive: -1.62
Cn1cnc2c(F)c(Nc3ccc(Br)cc3F)c(C(=O)NOCCO)cc21 [binimetinib],inactive: -0.0352,inactive: 1.25,inactive: -0.711
CC(=O)Oc1ccccc1C(=O)O[C@H](C)[C@H](N)C(=O)O,inactive: -1.55,inactive: -1.59,inactive: -1.8
Cn1ncnc1COc1nn2c(-c3cc(F)ccc3F)nnc2cc1C(C)(C)C,inactive: 1.39,inactive: 0.664,inactive: 1.56
Cc1ccc(S(=O)(=O)Nc2nc3ccccc3nc2Cl)cc1,inactive: -0.599,inactive: -0.201,inactive: 1.15
"CC1CC(OC(=O)C(O)c2ccccc2)CC(C)(C)C1 (centres undefined) [cyclandelate, Elan]",inactive: -2.77,,inactive: 1.95
CC1CC(OC(=O)C(O)c2ccccc2)CC(C)(C)C1 (centres undefined) [cyclandelate],,inactive: -1.73,
CC(C)[C@H](N)C(=O)OC[C@H]1O[C@@H](n2cc(F)c(=O)[nH]c2=O)[C@H](O)[C@@H]1O,inactive: -2.77,inactive: -1.2,inactive: -0.852
CN[C@H](CC(C)C)C(=O)N[C@H]1C(=O)N[C@@H](CC(N)=O)C(=O)N[C@H]2C(=O)N[C@H]3C(=O)N[C@H](C(=O)N[C@H](C(=O)O)c4cc(O)cc(O)c4-c4cc3ccc4O)[C@H](O)c3ccc(c(Cl)c3)Oc3cc2cc(c3O[C@@H]2O[C@H](CO)[C@@H](O)[C@H](O)[C@H]2O[C@H]2C[C@](C)(N)[C@H](O)[C@H](C)O2)Oc2ccc(cc2Cl)[C@H]1O [Vancomycin hydrochloride],,inactive: -0.775,
CN[C@H](CC(C)C)C(=O)N[C@H]1C(=O)N[C@@H](CC(N)=O)C(=O)N[C@H]2C(=O)N[C@H]3C(=O)N[C@H](C(=O)N[C@H](C(=O)O)c4cc(O)cc(O)c4-c4cc3ccc4O)[C@H](O)c3ccc(c(Cl)c3)Oc3cc2cc(c3O[C@@H]2O[C@H](CO)[C@@H](O)[C@H](O)[C@H]2O[C@H]2C[C@](C)(N)[C@H](O)[C@H](C)O2)Oc2ccc(cc2Cl)[C@H]1O [Vancomycin],inactive: 1.02,,inactive: 0.248
OC(CCN1CCCCC1)(c1ccccc1)C1CC2C=CC1C2 (centres undefined) [Biperiden],inactive: 2.2,inactive: -0.87,inactive: -1.81
CC[C@H](C)[C@H](NC(=O)[C@@H](NC(=O)[C@H](CCC(=O)O)NC(=O)[C@H](CCSC)NC(=O)[C@H](CC(C)C)NC(=O)[C@H](CCCCN)NC(=O)[C@H](CCCNC(=N)N)NC(=O)[C@H](CC(N)=O)NC(=O)[C@H](CO)NC(=O)[C@H](Cc1c[nH]cn1)NC(=O)[C@H](C)NC(=O)[C@H](CCC(N)=O)NC(=O)[C@H](CCC(N)=O)NC(=O)[C@H](C)NC(=O)[C@H](CC(C)C)NC(=O)[C@H](CCC(N)=O)NC(=O)[C@H](CCC(=O)O)NC(=O)[C@H](C)NC(=O)[C@H](CCCNC(=N)N)NC(=O)[C@H](C)NC(=O)[C@H](CCSC)NC(=O)[C@H](CCC(=O)O)NC(=O)[C@H](CC(C)C)NC(=O)[C@@H](NC(=O)[C@H](CCC(=O)O)NC(=O)[C@H](CCCNC(=N)N)NC(=O)[C@H](CC(C)C)NC(=O)[C@H](CC(C)C)NC(=O)[C@H](Cc1c[nH]cn1)NC(=O)[C@H](Cc1ccccc1)NC(=O)[C@@H](NC(=O)[C@H](CC(C)C)NC(=O)[C@H](CC(=O)O)NC(=O)[C@H](CC(C)C)NC(=O)[C@H](CO)NC(=O)[C@@H](NC(=O)[C@@H]1CCCN1C(=O)[C@@H]1CCCN1C(=O)[C@H](CCC(=O)O)NC(=O)[C@H](CCC(=O)O)NC(=O)[C@@H](N)CO)[C@@H](C)CC)[C@@H](C)O)C(C)C)[C@@H](C)CC)C(N)=O [Corticotropin-releasing factor (human)],inactive: -2.16,inactive: -1.44,inactive: 1.56
Fc1ccc2c(N3CCN(CC4Cc5ccccc54)CC3)noc2c1 (centres undefined),inactive: -0.717,inactive: -0.531,inactive: 0.745
COC(=O)Nc1cc(N2CC=CCC2)nc2nc(=O)on12 [Carprazadil],inactive: -0.927,inactive: -0.924,inactive: 0.527
CC(=O)OC[C@H]1O[C@@H](n2ccc(=O)[nH]c2=O)[C@H](OC(C)=O)[C@@H]1OC(C)=O [uridine triacetate],inactive: -2.72,inactive: -0.148,inactive: -1.6
COC(=O)[C@H](C/C=C/c1ccc(N(C)c2ncccn2)cc1)NC(=O)Cc1ccccc1,inactive: 2.21,inactive: -0.0174,inactive: 0.114
CC[C@H](Oc1ccccc1)C(=O)N[C@@H]1C(=O)N2[C@@H]1SC(C)(C)[C@@H]2C(=O)O,inactive: -0.399,inactive: -0.911,inactive: 0.126
O=C(O)c1ccccc1NC(=O)N1CCC(c2ccccc2C(F)(F)F)CC1,inactive: -1.11,inactive: -2.05,inactive: 0.186
CC1C(=O)OC2C(O)C34C5CC(C(C)(C)C)C36C(OC(=O)C6O)OC4(C(=O)O5)C12O (centres undefined) [Ginkgolide B],inactive: 0.727,inactive: -1.83,inactive: -2.03

# Whole records, quoted from the list.
# Cn1ncnc1COc1nn2c(-c3cc(F)ccc3F)nnc2cc1C(C)(C)C is listed with TEAD-luciferase reporter activity (compound concentration: 200 nM): inactive: 1.39; TEAD-luciferase reporter activity (compound concentration: 2 uM): inactive: 0.664; TEAD-luciferase reporter activity (compound concentration: 10 uM): inactive: 1.56
# Cc1ccc(S(=O)(=O)Nc2nc3ccccc3nc2Cl)cc1 is listed with TEAD-luciferase reporter activity (compound concentration: 200 nM): inactive: -0.599; TEAD-luciferase reporter activity (compound concentration: 2 uM): inactive: -0.201; TEAD-luciferase reporter activity (compound concentration: 10 uM): inactive: 1.15

# Reference: the supplement of paper PMC10735217
